Experiment [1] deals with λPΔ102 (truncated λP, residues 103-233), hexahistidine-tagged (bacteriophage λ) (UniProt P03689). In words: pull-down; Ni-NTA beads; co-expressed untagged DnaB and His-tagged λPΔ102 loaded in 10 mM imidazole, washed three times with 20 mM imidazole, eluted with 250 mM imidazole; SDS-PAGE.
For experiment [2], the target named is Escherichia coli DnaB helicase (Escherichia coli) (UniProt P0ACB0). The experiment can be described thus: cross-linking; DSS cross-linking with mass spectrometry (CX-MS); EcDnaB-λP with Oriλ-derived ssDNA (0.2 mg/ml, protein to DNA 1:1.2), 2 mM DSS overnight at 4°C; the gel region of 170-460 kDa digested with trypsin; both purified.

Protein sequences, listed by entry. Tags and fused reporters are not part of them.
UniProt P0ACB0: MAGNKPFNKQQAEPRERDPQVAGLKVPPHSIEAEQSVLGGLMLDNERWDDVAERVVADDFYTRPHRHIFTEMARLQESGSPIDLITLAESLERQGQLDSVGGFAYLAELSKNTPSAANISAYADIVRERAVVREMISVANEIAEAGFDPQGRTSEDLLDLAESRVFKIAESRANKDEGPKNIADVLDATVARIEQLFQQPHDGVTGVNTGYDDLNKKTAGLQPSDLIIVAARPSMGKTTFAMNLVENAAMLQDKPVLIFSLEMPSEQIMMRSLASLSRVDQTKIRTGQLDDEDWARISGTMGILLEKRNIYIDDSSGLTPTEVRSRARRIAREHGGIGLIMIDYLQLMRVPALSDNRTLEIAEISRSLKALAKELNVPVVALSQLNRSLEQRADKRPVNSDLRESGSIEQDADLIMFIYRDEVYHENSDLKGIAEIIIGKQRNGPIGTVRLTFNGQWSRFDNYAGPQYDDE

No constants are given. Whether binding was seen depends on the method and setting. For some assays here: Binding seen in cells or lysates may run through a third protein. Some entries that bind do so weakly or less than the wild type.

As to “Escherichia coli DnaB helicase (from UniProt P0ACB0 1-471) (enzyme)”, the binding result in experiment [1] is on record as “binds”.

B1: bacteriophage λP helicase loader (natural protein, UniProt P03689 1-233, looked up)
chain: MKNIAAQMVNFDREQMRRIANNMPEQYDEKPQVQQVAQIINGVFSQLLATFPASLANRDQNEVNEIRRQWVLAFRENGITTMEQVNAGMRVARRQNRPFLPSPGQFVAWCREEASVTAGLPNVSELVDMVYEYCRKRGLYPDAESYPWKSNAHYWLVTNLYQNMRANALTDAELRRKAADELVHMTARINRGEAIPEPVKQLPVMGGRPLNRAQALAKIAEIKAKFGLKGASV
notes: bacteriophage λ replication protein P (helicase loader), full length, 233 residues, 26,518 Da, untagged; Five copies stand in the predominant complex with the DnaB hexamer; The 6BBM model of λP has no side chains and covers about residues 109-233; also called lambdaP; LP; source: E. coli BL21(DE3), co-expressed with DnaB (pCDFDuet-λP); purified as the BP complex (ammonium sulfate, Q-sepharose, …)
Regarding B1, the binding result in experiment [2] is “binds”.

Values taken from article PMC6391071, “Mechanisms of opening and closing of the bacterial replicative helicase” (eLife, 2018).
